# Data: the supplement of paper PMC8728848
# Some of the results follow.
# B1: FimA-N2 (Actinomyces oris) (protein)
# chain: MHHHHHHSSGVDLGTENLYFQSNAWIYDVNVYPKNEAIDVDKTIQAQKLNGYGVGSLIKFPVESTAPTLDAKSFYKYFQLKDTLDERLSEVTATDVSLEGTPLQPTDYKVETKQQTVTVTFTAEGLKKIKAAPGKKVSAVFQGKVTKAGNGAITNRAQVISDTLYAEQPPTPETPPTDPENPPTSDEVISRWGDLSIKKVDTHQQGQTKA
# Experiments:
# Assay in all cases: glycan array binding signal (z-score within array); higher = stronger binding
# Settings in all cases: glycan notation: IUPAC condensed, linker removed
# [1] = target: Neu5Ac(a2-3)GalNAc(b1-4)GlcNAc
# Method in brief: (§1)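 Arrays were curated from the Consortium for Functional Glycomics database, 3228 in total, and kept only where the protein sequence was available. Binding is expressed as a within-array Z-score. This score was averaged across arrays of the same protein sequence at different concentrations or buffers and across linkers, and negative values can be read as non-binding.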
# [2] = target: Neu5Ac(a2-3)[GalNAc(b1-4)]Gal(b1-4)Glc
# Method in brief: as §1
# [3] = target: Neu5Ac(a2-3)[GalNAc(b1-4)]Gal(b1-4)GlcNAc
# Method in brief: as §1
# [4] = target: Neu5Ac(a2-3)[GalNAc(b1-4)]Gal(b1-4)GlcNAc(b1-3)GalNAc
# Method in brief: as §1
# [5] = target: Neu5Ac(a2-3)[Neu5Ac(a2-6)]GalNAc
# Method in brief: as §1
# Neu5Ac(a2-6)Gal = target: Neu5Ac(a2-6)Gal
# Method in brief: as §1
# [6] = target: Neu5Ac(a2-6)Gal(b1-3)GlcNAc(b1-3)[Gal(b1-4)GlcNAc(b1-6)]Gal(b1-4)Glc
# Method in brief: as §1
# Neu5Ac(a2-6)Gal(b1-4)Glc = target: Neu5Ac(a2-6)Gal(b1-4)Glc
# Method in brief: as §1
# [7] = target: Neu5Ac(a2-6)Gal(b1-4)GlcNAc
# Method in brief: as §1
# [8] = target: Neu5Ac(a2-6)Gal(b1-4)GlcNAc(b1-2)Man
# Method in brief: as §1
# [9] = target: Neu5Ac(a2-6)Gal(b1-4)GlcNAc(b1-2)Man(a1-3)Man(b1-4)GlcNAc(b1-4)GlcNAc
# Method in brief: as §1
# [10] = target: Neu5Ac(a2-6)Gal(b1-4)GlcNAc(b1-2)Man(a1-3)[Gal(b1-4)GlcNAc(b1-2)Man(a1-6)]Man(b1-4)GlcNAc(b1-4)GlcNAc
# Method in brief: as §1
# [11] = target: Neu5Ac(a2-6)Gal(b1-4)GlcNAc(b1-2)Man(a1-3)[GlcNAc(b1-2)Man(a1-6)]Man(b1-4)GlcNAc(b1-4)GlcNAc
# Method in brief: as §1
# [12] = target: Neu5Ac(a2-6)Gal(b1-4)GlcNAc(b1-2)Man(a1-3)[GlcNAc(b1-4)][Neu5Ac(a2-6)Gal(b1-4)GlcNAc(b1-2)Man(a1-6)]Man(b1-4)GlcNAc(b1-4)GlcNAc
# Method in brief: as §1
# [13] = target: Neu5Ac(a2-6)Gal(b1-4)GlcNAc(b1-2)Man(a1-3)[Man(a1-6)]Man(b1-4)GlcNAc(b1-4)GlcNAc
# Method in brief: as §1
# [14] = target: Neu5Ac(a2-6)Gal(b1-4)GlcNAc(b1-2)Man(a1-3)[Neu5Ac(a2-3)Gal(b1-4)GlcNAc(b1-2)Man(a1-6)]Man(b1-4)GlcNAc(b1-4)GlcNAc
# Method in brief: as §1
# [15] = target: Neu5Ac(a2-6)Gal(b1-4)GlcNAc(b1-2)Man(a1-3)[Neu5Ac(a2-6)Gal(b1-4)GlcNAc(b1-2)Man(a1-6)]Man(b1-4)GlcNAc(b1-4)GlcNAc
# Method in brief: as §1
# [16] = target: Neu5Ac(a2-6)Gal(b1-4)GlcNAc(b1-2)Man(a1-3)[Neu5Ac(a2-6)Gal(b1-4)GlcNAc(b1-2)Man(a1-6)]Man(b1-4)GlcNAc(b1-4)[Fuc(a1-6)]GlcNAc
# Method in brief: as §1
# [17] = target: Neu5Ac(a2-6)Gal(b1-4)GlcNAc(b1-2)Man(a1-6)Man(b1-4)GlcNAc(b1-4)GlcNAc
# Method in brief: as §1
# [18] = target: Neu5Ac(a2-6)Gal(b1-4)GlcNAc(b1-2)Man(a1-6)[Gal(b1-4)GlcNAc(b1-2)Man(a1-3)]Man(b1-4)GlcNAc(b1-4)GlcNAc
# Method in brief: as §1
# [19] = target: Neu5Ac(a2-6)Gal(b1-4)GlcNAc(b1-2)Man(a1-6)[GlcNAc(b1-2)Man(a1-3)]Man(b1-4)GlcNAc(b1-4)GlcNAc
# Method in brief: as §1
# [20] = target: Neu5Ac(a2-6)Gal(b1-4)GlcNAc(b1-2)Man(a1-6)[Man(a1-3)]Man(b1-4)GlcNAc(b1-4)GlcNAc
# Method in brief: as §1
# [21] = target: Neu5Ac(a2-6)Gal(b1-4)GlcNAc(b1-2)[Neu5Ac(a2-6)Gal(b1-4)GlcNAc(b1-4)]Man(a1-3)[GlcNAc(b1-4)][Neu5Ac(a2-6)Gal(b1-4)GlcNAc(b1-2)[Neu5Ac(a2-6)Gal(b1-4)GlcNAc(b1-6)]Man(a1-6)]Man(b1-4)GlcNAc(b1-4)GlcNAc
# Method in brief: as §1
# [22] = target: Neu5Ac(a2-6)Gal(b1-4)GlcNAc(b1-2)[Neu5Ac(a2-6)Gal(b1-4)GlcNAc(b1-4)]Man(a1-3)[GlcNAc(b1-4)][Neu5Ac(a2-6)Gal(b1-4)GlcNAc(b1-4)Man(a1-6)]Man(b1-4)GlcNAc(b1-4)GlcNAc
# Method in brief: as §1
# [23] = target: Neu5Ac(a2-6)Gal(b1-4)GlcNAc(b1-2)[Neu5Ac(a2-6)Gal(b1-4)GlcNAc(b1-6)]Man(a1-6)[Neu5Ac(a2-6)Gal(b1-4)GlcNAc(b1-2)Man(a1-3)][GlcNAc(b1-4)]Man(b1-4)GlcNAc(b1-4)GlcNAc
# Method in brief: as §1
# [24] = target: Neu5Ac(a2-6)Gal(b1-4)GlcNAc(b1-3)Gal(b1-3)GlcNAc
# Method in brief: as §1
# [25] = target: Neu5Ac(a2-6)Gal(b1-4)GlcNAc(b1-3)Gal(b1-4)GlcNAc
# Method in brief: as §1
# [26] = target: Neu5Ac(a2-6)Gal(b1-4)GlcNAc(b1-3)Gal(b1-4)GlcNAc(b1-2)Man(a1-3)[Neu5Ac(a2-6)Gal(b1-4)GlcNAc(b1-3)Gal(b1-4)GlcNAc(b1-2)Man(a1-6)]GalNAc
# Method in brief: as §1
# [27] = target: Neu5Ac(a2-6)Gal(b1-4)GlcNAc(b1-3)Gal(b1-4)GlcNAc(b1-3)Gal(b1-4)GlcNAc
# Method in brief: as §1
# [28] = target: Neu5Ac(a2-6)Gal(b1-4)GlcNAc(b1-3)Gal(b1-4)GlcNAc(b1-3)Gal(b1-4)GlcNAc(b1-2)Man(a1-3)[Neu5Ac(a2-6)Gal(b1-4)GlcNAc(b1-3)Gal(b1-4)GlcNAc(b1-3)Gal(b1-4)GlcNAc(b1-2)Man(a1-6)]GalNAc
# Method in brief: as §1
# [29] = target: Neu5Ac(a2-6)Gal(b1-4)GlcNAc(b1-3)Gal(b1-4)GlcNAc(b1-3)GalNAc
# Method in brief: as §1
# [30] = target: Neu5Ac(a2-6)Gal(b1-4)GlcNAc(b1-3)Gal(b1-4)GlcNAc(b1-3)[Neu5Ac(a2-6)Gal(b1-4)GlcNAc(b1-3)Gal(b1-4)GlcNAc(b1-6)]GalNAc
# Method in brief: as §1
# [31] = target: Neu5Ac(a2-6)Gal(b1-4)GlcNAc(b1-3)Gal(b1-4)GlcNAc(b1-6)[Gal(b1-3)]GalNAc
# Method in brief: as §1
# [32] = target: Neu5Ac(a2-6)Gal(b1-4)GlcNAc(b1-3)Gal(b1-4)[Fuc(a1-3)]GlcNAc(b1-3)Gal(b1-4)[Fuc(a1-3)]GlcNAc
# Method in brief: as §1
# [33] = target: Neu5Ac(a2-6)Gal(b1-4)GlcNAc(b1-3)GalNAc
# Method in brief: as §1
# [34] = target: Neu5Ac(a2-6)Gal(b1-4)GlcNAc(b1-3)[Neu5Ac(a2-6)Gal(b1-4)GlcNAc(b1-6)]GalNAc
# Method in brief: as §1
# [35] = target: Neu5Ac(a2-6)Gal(b1-4)GlcNAc(b1-6)GalNAc
# Method in brief: as §1
# [36] = target: Neu5Ac(a2-6)Gal(b1-4)GlcNAc(b1-6)[Gal(b1-3)GlcNAc(b1-3)]Gal(b1-4)Glc
# Method in brief: as §1
binder,measurement,setting,value
B1,glycan array binding signal (z-score),[1],0.59
same,glycan array binding signal (z-score),[2],-0.484
same,glycan array binding signal (z-score),[3],-1.35
same,glycan array binding signal (z-score),[4],0.146
same,glycan array binding signal (z-score),[5],-1.07
same,glycan array binding signal (z-score),Neu5Ac(a2-6)Gal,-0.241
same,glycan array binding signal (z-score),[6],-0.177
same,glycan array binding signal (z-score),Neu5Ac(a2-6)Gal(b1-4)Glc,0.148
same,glycan array binding signal (z-score),[7],-0.75
same,glycan array binding signal (z-score),[8],-0.501
same,glycan array binding signal (z-score),[9],-1.15
same,glycan array binding signal (z-score),[10],-0.171
same,glycan array binding signal (z-score),[11],-0.634
same,glycan array binding signal (z-score),[12],-1.7
same,glycan array binding signal (z-score),[13],0.005
same,glycan array binding signal (z-score),[14],0.884
same,glycan array binding signal (z-score),[15],0.297
same,glycan array binding signal (z-score),[16],0.538
same,glycan array binding signal (z-score),[17],-0.759
same,glycan array binding signal (z-score),[18],-1.01
same,glycan array binding signal (z-score),[19],0.589
same,glycan array binding signal (z-score),[20],-0.882
same,glycan array binding signal (z-score),[21],-0.605
same,glycan array binding signal (z-score),[22],-0.955
same,glycan array binding signal (z-score),[23],-1.28
same,glycan array binding signal (z-score),[24],1.22
same,glycan array binding signal (z-score),[25],-0.606
same,glycan array binding signal (z-score),[26],1.3
same,glycan array binding signal (z-score),[27],0.232
same,glycan array binding signal (z-score),[28],-0.267
same,glycan array binding signal (z-score),[29],-0.349
same,glycan array binding signal (z-score),[30],1.6
same,glycan array binding signal (z-score),[31],-0.597
same,glycan array binding signal (z-score),[32],-0.521
same,glycan array binding signal (z-score),[33],-0.607
same,glycan array binding signal (z-score),[34],-0.192
same,glycan array binding signal (z-score),[35],0.441
same,glycan array binding signal (z-score),[36],0.385

# No new results follow: entries from further up.
binder,measurement,setting,value
B1,glycan array binding signal (z-score),[21],-0.605
same,glycan array binding signal (z-score),[22],-0.955
same,glycan array binding signal (z-score),[23],-1.28
